{
  "source": "PubChem BioAssay AID256",
  "about": "(DTP/NCI, 2004)",
  "system": "CD2F1 mice, L1210 leukemia ip, survival T/C",
  "test": "NCI In Vivo Anticancer Drug Screen. Data for tumor model L1210 Leukemia (intraperitoneal) in CD2F1 (CDF1) mice",
  "details": "higher T/C = longer survival",
  "method": "The antitumor activity of compounds was measured in mice bearing transplantable tumors. Survival or tumor size were measured and the results are expressed as the measurement made in the treated group (T) divided by the measurement made in the vehicle treated control group (C). The tumor model used in this assay is L1210 Leukemia (intraperitoneal) in CD2F1 (CDF1) mice",
  "note": "The list is a part of this screen's results and no random one: its compounds were picked by chemical class. Other doses and runs of a compound may be missing. T/C gives the treated animals as a percentage of the vehicle group. Where survival is the endpoint, this PubChem deposit counts one and a half times the control or more as active, and values a quarter to a half above the control carry no call in these data; other NCI protocols may use other cut-offs. Schedules are NCI's codes, read here as Q, the interval in days (D) or hours (H), X, the number of doses. Some T/C values are marked as having no survivor count here; that says nothing about deaths at the dose. Some doses were run more than once; their values stand side by side, smallest first.",
  "data": [
    {"smiles": "CC(=O)OCC12CCC(C)=CC1OC1C(O)C(OC(C)=O)C2(C)C12CO2", "note": "(stereo not drawn)", "values": [
      {"measurement": "T/C", "setting": "T/C endpoint: mean survival time, dose: 0.06 mg/kg/injection, schedule: Q03HX008 (ip), vehicle: saline", "value": "113 % of control [survivor count not shown]"},
      {"measurement": "T/C", "setting": "T/C endpoint: mean survival time, dose: 0.06 mg/kg/injection, schedule: Q03HX016 (ip), vehicle: saline", "value": "104 % of control [survivor count not shown]"},
      {"measurement": "T/C", "setting": "T/C endpoint: mean survival time, dose: 0.06 mg/kg/injection, schedule: Q03HX024 (ip), vehicle: saline", "value": "109 % of control [survivor count not shown]"},
      {"measurement": "T/C", "setting": "T/C endpoint: mean survival time, dose: 0.13 mg/kg/injection, schedule: Q03HX008 (ip), vehicle: saline", "value": "119 % of control [survivor count not shown]"},
      {"measurement": "T/C", "setting": "T/C endpoint: mean survival time, dose: 0.13 mg/kg/injection, schedule: Q03HX024 (ip), vehicle: saline", "value": "118 % of control [survivor count not shown]"},
      {"measurement": "T/C", "setting": "T/C endpoint: mean survival time, dose: 0.25 mg/kg/injection, schedule: Q01DX009 (ip), vehicle: saline", "value": "118 % of control [survivor count not shown]"},
      {"measurement": "T/C", "setting": "T/C endpoint: mean survival time, dose: 0.25 mg/kg/injection, schedule: Q03HX008 (ip), vehicle: saline", "value": "129 % of control [survivor count not shown]"},
      {"measurement": "T/C", "setting": "T/C endpoint: mean survival time, dose: 0.25 mg/kg/injection, schedule: Q03HX016 (ip), vehicle: saline", "value": "116 % of control [survivor count not shown]"},
      {"measurement": "T/C", "setting": "T/C endpoint: mean survival time, dose: 0.25 mg/kg/injection, schedule: Q03HX024 (ip), vehicle: saline", "value": "119 % of control [survivor count not shown]"},
      {"measurement": "T/C", "setting": "T/C endpoint: mean survival time, dose: 0.5 mg/kg/injection, schedule: Q01DX009 (ip), vehicle: saline", "value": "119 % of control [survivor count not shown]"},
      {"measurement": "T/C", "setting": "T/C endpoint: mean survival time, dose: 0.5 mg/kg/injection, schedule: Q01DX009 (iv), vehicle: saline", "value": "124 % of control [survivor count not shown]"},
      {"measurement": "T/C", "setting": "T/C endpoint: mean survival time, dose: 0.5 mg/kg/injection, schedule: Q01DX009 (sc), vehicle: saline", "value": "110 % of control [survivor count not shown]"},
      {"measurement": "T/C", "setting": "T/C endpoint: mean survival time, dose: 0.5 mg/kg/injection, schedule: Q03HX008 (ip), vehicle: saline", "value": "117 [survivor count not shown] and 138 % of control [survivor count not shown]"},
      {"measurement": "T/C", "setting": "T/C endpoint: mean survival time, dose: 0.5 mg/kg/injection, schedule: Q03HX016 (ip), vehicle: saline", "value": "122 % of control [survivor count not shown]"},
      {"measurement": "T/C", "setting": "T/C endpoint: mean survival time, dose: 0.5 mg/kg/injection, schedule: Q03HX024 (ip), vehicle: saline", "value": "141 [survivor count not shown] and 144 % of control [survivor count not shown]"},
      {"measurement": "T/C", "setting": "T/C endpoint: mean survival time, dose: 1.0 mg/kg/injection, schedule: Q01DX009 (ip), vehicle: saline", "value": "131 % of control [survivor count not shown]"},
      {"measurement": "T/C", "setting": "T/C endpoint: mean survival time, dose: 1.0 mg/kg/injection, schedule: Q01DX009 (iv), vehicle: saline", "value": "130 % of control [survivor count not shown]"},
      {"measurement": "T/C", "setting": "T/C endpoint: mean survival time, dose: 1.0 mg/kg/injection, schedule: Q01DX009 (oral), vehicle: saline", "value": "110 % of control [survivor count not shown]"},
      {"measurement": "T/C", "setting": "T/C endpoint: mean survival time, dose: 1.0 mg/kg/injection, schedule: Q01DX009 (sc), vehicle: saline", "value": "127 % of control [survivor count not shown]"},
      {"measurement": "T/C", "setting": "T/C endpoint: mean survival time, dose: 1.0 mg/kg/injection, schedule: Q03HX008 (ip), vehicle: saline", "value": "136 % of control [survivor count not shown]"},
      {"measurement": "T/C", "setting": "T/C endpoint: mean survival time, dose: 1.0 mg/kg/injection, schedule: Q03HX016 (ip), vehicle: saline", "value": "127 % of control [survivor count not shown]"},
      {"measurement": "T/C", "setting": "T/C endpoint: mean survival time, dose: 2.0 mg/kg/injection, schedule: Q01DX001 (ip), vehicle: saline", "value": "103 % of control [survivor count not shown]"},
      {"measurement": "T/C", "setting": "T/C endpoint: mean survival time, dose: 2.0 mg/kg/injection, schedule: Q01DX009 (ip), vehicle: saline", "value": "137 % of control [survivor count not shown]"},
      {"measurement": "T/C", "setting": "T/C endpoint: mean survival time, dose: 2.0 mg/kg/injection, schedule: Q01DX009 (iv), vehicle: saline", "value": "134 % of control [survivor count not shown]"},
      {"measurement": "T/C", "setting": "T/C endpoint: mean survival time, dose: 2.0 mg/kg/injection, schedule: Q01DX009 (oral), vehicle: saline", "value": "121 % of control [survivor count not shown]"},
      {"measurement": "T/C", "setting": "T/C endpoint: mean survival time, dose: 2.0 mg/kg/injection, schedule: Q01DX009 (sc), vehicle: saline", "value": "121 % of control [survivor count not shown]"},
      {"measurement": "T/C", "setting": "T/C endpoint: mean survival time, dose: 2.0 mg/kg/injection, schedule: Q04DX003 (ip), vehicle: saline", "value": "114 % of control [survivor count not shown]"},
      {"measurement": "T/C", "setting": "T/C endpoint: mean survival time, dose: 2.0 mg/kg/injection, schedule: Q08DX002 (ip), vehicle: saline", "value": "96 % of control [survivor count not shown]"},
      {"measurement": "T/C", "setting": "T/C endpoint: mean survival time, dose: 4.0 mg/kg/injection, schedule: Q01DX001 (ip), vehicle: saline", "value": "93 [survivor count not shown] and 107 % of control [survivor count not shown]"},
      {"measurement": "T/C", "setting": "T/C endpoint: mean survival time, dose: 4.0 mg/kg/injection, schedule: Q01DX001 (iv), vehicle: saline", "value": "110 % of control [survivor count not shown]"},
      {"measurement": "T/C", "setting": "T/C endpoint: mean survival time, dose: 4.0 mg/kg/injection, schedule: Q01DX001 (oral), vehicle: saline", "value": "103 % of control [survivor count not shown]"},
      {"measurement": "T/C", "setting": "T/C endpoint: mean survival time, dose: 4.0 mg/kg/injection, schedule: Q01DX009 (ip), vehicle: saline", "value": "126 % of control [survivor count not shown]"},
      {"measurement": "T/C", "setting": "T/C endpoint: mean survival time, dose: 4.0 mg/kg/injection, schedule: Q01DX009 (iv), vehicle: saline", "value": "101 % of control [survivor count not shown]"},
      {"measurement": "T/C", "setting": "T/C endpoint: mean survival time, dose: 4.0 mg/kg/injection, schedule: Q01DX009 (oral), vehicle: saline", "value": "89 % of control [survivor count not shown]"},
      {"measurement": "T/C", "setting": "T/C endpoint: mean survival time, dose: 4.0 mg/kg/injection, schedule: Q04DX003 (ip), vehicle: saline", "value": "113 [survivor count not shown] and 117 % of control [survivor count not shown]"},
      {"measurement": "T/C", "setting": "T/C endpoint: mean survival time, dose: 4.0 mg/kg/injection, schedule: Q08DX002 (ip), vehicle: saline", "value": "102 [survivor count not shown] and 105 % of control [survivor count not shown]"},
      {"measurement": "T/C", "setting": "T/C endpoint: mean survival time, dose: 8.0 mg/kg/injection, schedule: Q01DX001 (ip), vehicle: saline", "value": "104 % of control [survivor count not shown]"},
      {"measurement": "T/C", "setting": "T/C endpoint: mean survival time, dose: 8.0 mg/kg/injection, schedule: Q01DX001 (oral), vehicle: saline", "value": "108 % of control [survivor count not shown]"},
      {"measurement": "T/C", "setting": "T/C endpoint: mean survival time, dose: 8.0 mg/kg/injection, schedule: Q04DX003 (ip), vehicle: saline", "value": "115 [survivor count not shown] and 123 % of control [survivor count not shown]"},
      {"measurement": "T/C", "setting": "T/C endpoint: mean survival time, dose: 8.0 mg/kg/injection, schedule: Q08DX002 (ip), vehicle: saline", "value": "100 [survivor count not shown] and 110 % of control [survivor count not shown]"},
      {"measurement": "T/C", "setting": "T/C endpoint: median survival time, dose: 0.25 mg/kg/injection, schedule: Q01DX009 (ip), vehicle: saline", "value": "110 % of control [survivor count not shown]"},
      {"measurement": "T/C", "setting": "T/C endpoint: median survival time, dose: 0.5 mg/kg/injection, schedule: Q01DX009 (ip), vehicle: saline", "value": "125 % of control [survivor count not shown]"},
      {"measurement": "T/C", "setting": "T/C endpoint: median survival time, dose: 1.0 mg/kg/injection, schedule: Q01DX009 (ip), vehicle: saline", "value": "134 % of control [survivor count not shown]"},
      {"measurement": "T/C", "setting": "T/C endpoint: median survival time, dose: 2.0 mg/kg/injection, schedule: Q01DX009 (ip), vehicle: saline", "value": "135 % of control [survivor count not shown]"},
      {"measurement": "T/C", "setting": "T/C endpoint: median survival time, dose: 4.0 mg/kg/injection, schedule: Q01DX009 (ip), vehicle: saline", "value": "143 % of control [survivor count not shown]"}
    ]},
    {"smiles": "C[C@@H](O)[C@H]1/C=C/C=C\\C(=O)O[C@@H]2C[C@H]3O[C@@H]4[C@@H]5OC5(C)CCC4(COC(=O)[C@H]4O[C@]4(C)[C@@H](O)CO1)[C@]2(C)[C@]31CO1", "note": "(stereo partly drawn)", "values": [
      {"measurement": "T/C", "setting": "T/C endpoint: mean survival time, dose: 1.25 mg/kg/injection, schedule: Q01DX009 (ip), vehicle: saline + Tween-80 + alcohol", "value": "126 % of control [survivor count not shown]"},
      {"measurement": "T/C", "setting": "T/C endpoint: mean survival time, dose: 1.25 mg/kg/injection, schedule: Q01DX009 (ip), vehicle: saline + alcohol", "value": "111 % of control [survivor count not shown]"},
      {"measurement": "T/C", "setting": "T/C endpoint: mean survival time, dose: 2.5 mg/kg/injection, schedule: Q01DX009 (ip), vehicle: saline + Tween-80 + alcohol", "value": "137 % of control [survivor count not shown]"},
      {"measurement": "T/C", "setting": "T/C endpoint: mean survival time, dose: 2.5 mg/kg/injection, schedule: Q01DX009 (ip), vehicle: saline + alcohol", "value": "117 % of control [survivor count not shown]"},
      {"measurement": "T/C", "setting": "T/C endpoint: mean survival time, dose: 5.0 mg/kg/injection, schedule: Q01DX009 (ip), vehicle: saline + alcohol", "value": "128 [survivor count not shown] and 132 % of control [survivor count not shown]"},
      {"measurement": "T/C", "setting": "T/C endpoint: mean survival time, dose: 10.0 mg/kg/injection, schedule: Q01DX009 (ip), vehicle: saline + alcohol", "value": "115 [survivor count not shown] and 118 % of control [survivor count not shown]"},
      {"measurement": "T/C", "setting": "T/C endpoint: mean survival time, dose: 20.0 mg/kg/injection, schedule: Q01DX009 (ip), vehicle: saline + alcohol", "value": "132 % of control [survivor count not shown]"},
      {"measurement": "T/C", "setting": "T/C endpoint: mean survival time, dose: 40.0 mg/kg/injection, schedule: Q01DX009 (ip), vehicle: saline + alcohol", "value": "117 [survivor count not shown] and 157 % of control [survivor count not shown]"}
    ]}
  ]
}
